This note sets out measurements from the supplement of paper PMC3334620.

In all, about 33,000 sequences were measured (“E-score (-0.5 to 0.5)”: median about -0.0014, highest 2% from about 0.25 on). The list shows a part of the results.

This assay deals with T1, Cad1 (UniProt P24813).
T1 sequence: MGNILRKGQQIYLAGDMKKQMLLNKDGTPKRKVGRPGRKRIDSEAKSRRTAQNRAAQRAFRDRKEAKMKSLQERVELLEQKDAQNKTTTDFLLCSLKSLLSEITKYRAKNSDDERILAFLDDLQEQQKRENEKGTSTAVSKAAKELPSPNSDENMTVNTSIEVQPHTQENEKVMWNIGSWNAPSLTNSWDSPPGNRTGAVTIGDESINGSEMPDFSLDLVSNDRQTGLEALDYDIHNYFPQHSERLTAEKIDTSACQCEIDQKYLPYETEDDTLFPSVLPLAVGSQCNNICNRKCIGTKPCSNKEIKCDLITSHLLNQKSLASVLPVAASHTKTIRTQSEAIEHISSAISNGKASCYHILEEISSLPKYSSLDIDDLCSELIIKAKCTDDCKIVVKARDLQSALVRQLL
Briefly: PBM E-score (8-mer binding enrichment) (E-score (-0.5 to 0.5)); higher = stronger / more preferred TF binding. Conditions: protein concentration: 100 nM; construct: GST-full length. Put shortly:
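The E-score, a modified Wilcoxon-Mann-Whitney statistic, was computed by the Universal PBM Analysis Suite for every ungapped eight-base word pooled with its reverse complement. Scans behind it were normalised with masliner after bound GST-tagged yeast transcription factors were detected with fluorescent anti-GST. The proteins, at about 100-200 nM, had been applied to universal all-10-mer Agilent arrays made double-stranded by primer extension.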
On to ACACGTAT, for which the “PBM E-score” value is 0.0275.

In the case of CCCTAGAA, the “PBM E-score” value is -0.147.

Regarding CGTCCCGA, the “PBM E-score” value is -0.168.

Regarding GTATTTAA, the “PBM E-score” value is 0.0263.

On to ATTTTCCC, for which the “PBM E-score” value stood at 0.00868.

As for GGCACACC, the “PBM E-score” value was -0.298.

For the sequence CGACTAAG, the “PBM E-score” value is -0.00537.

Regarding TCTGCAGA, the “PBM E-score” value stood at 0.0906.

TCTACGAA: the “PBM E-score” value is -0.0885.

Consider CCATACTA, for which the “PBM E-score” value came to 0.0779.

For the sequence CTCGTACC, the “PBM E-score” value was found to be 0.00387.

For the sequence ATTTGATA, the “PBM E-score” value was 0.204.

As to AGCATACT, the “PBM E-score” value stood at 0.00806.

Take AGATCTAG: the “PBM E-score” value is -0.0949.

ATACACCA: the “PBM E-score” value was found to be 0.12.

With ATAGATAT, the “PBM E-score” value was determined as 0.0925.

Take ACAACCTG: the “PBM E-score” value amounted to 0.00186.

For AGTGTCGC, the “PBM E-score” value was -0.011.

For the sequence AGTGGGAG, the “PBM E-score” value was -0.0654.

On to ACGTAAGG, for which the “PBM E-score” value was 0.0985.

With GCCTCGAC, the “PBM E-score” value is -0.224.

For AGCAAGAG, the “PBM E-score” value was -0.0637.

Turning to GCATATGC, the “PBM E-score” value amounted to 0.092.

As for ACGCCGGC, the “PBM E-score” value amounted to 0.141.

On to ACTGAACA, for which the “PBM E-score” value amounted to 0.213.

Take GAGGATAA: the “PBM E-score” value stood at 0.135.

Take TACACATA: the “PBM E-score” value was determined as 0.152.

On to AGGTAGCG, for which the “PBM E-score” value was -0.0253.

For the sequence AGGGCTGA, the “PBM E-score” value is -0.0362.

Take CTGCTTTC: the “PBM E-score” value stood at 0.0536.

Regarding ATGGACAC, the “PBM E-score” value stood at 0.0821.

Turning to AAGTAAAT, the “PBM E-score” value came to 0.0942.

CGGTAGCA: the “PBM E-score” value is -0.0437.

As for ACGCGGCA, the “PBM E-score” value is 0.00015.

AGGGCCGA: the “PBM E-score” value turned out to be 0.122.

Take AAGCATGC: the “PBM E-score” value is 0.0819.

As to AGCTGTGC, the “PBM E-score” value was -0.0191.

Take GAAAAGAA: the “PBM E-score” value was 0.0494.

In the case of CAGGATGC, the “PBM E-score” value was -0.0999.

Take GTGCGTTA: the “PBM E-score” value worked out at 0.146.

Take TGATACAA: the “PBM E-score” value was -0.0341.

GATGGCCA: the “PBM E-score” value is 0.116.

Turning to ACTCCCAC, the “PBM E-score” value is -0.26.

CACCCTGA: the “PBM E-score” value is -0.06.

Regarding GACAGGAA, the “PBM E-score” value came to 0.167.

For ACCATTCT, the “PBM E-score” value is -0.184.

For the sequence CTGTATGA, the “PBM E-score” value turned out to be 0.112.

Turning to ACGTAGAG, the “PBM E-score” value is -0.0849.

For TAACTACA, the “PBM E-score” value was found to be 0.157.

In the case of CAAAACAC, the “PBM E-score” value was -0.0151.

In the case of CACCCTCC, the “PBM E-score” value is -0.168.

Consider CGATCCGA, for which the “PBM E-score” value is 0.251.

Take CTGCGCAA: the “PBM E-score” value came out at 0.085.

Turning to AGTGGAAG, the “PBM E-score” value is -0.238.

Consider ATGAACTG, for which the “PBM E-score” value stood at 0.231.

CCCGACTC: the “PBM E-score” value is -0.0769.

Take CCAGTAGC: the “PBM E-score” value was -0.0664.

Take GATTGTTA: the “PBM E-score” value came to 0.0925.

On to CCTCAGCG, for which the “PBM E-score” value is -0.0995.

With AAACCTTC, the “PBM E-score” value is -0.205.

Take AACGAGCT: the “PBM E-score” value is -0.0413.

For TAACGCCA, the “PBM E-score” value came out at 0.0123.

Take AGCTACTG: the “PBM E-score” value came out at 0.174.

TGATTACA: the “PBM E-score” value was found to be 0.275.

CAACCTCC: the “PBM E-score” value is -0.126.

Turning to ATGCCTAG, the “PBM E-score” value was -0.255.

AAGATGAA: the “PBM E-score” value was found to be 0.0257.

Take ACCCCTAT: the “PBM E-score” value is 0.0561.

In the case of AGTATCCA, the “PBM E-score” value was 0.0823.

On to ATCAAGAA, for which the “PBM E-score” value was 0.223.

On to CAGTGTGA, for which the “PBM E-score” value came to 0.113.

CGATGTGC: the “PBM E-score” value is -0.00621.

Regarding GTCAACGA, the “PBM E-score” value was found to be 0.0496.

In the case of CGACCTGC, the “PBM E-score” value is -0.0229.

For the sequence ACCATGCG, the “PBM E-score” value was -0.0289.

Turning to GGGTCGCA, the “PBM E-score” value was -0.0272.

ATCGCCAA: the “PBM E-score” value is -0.0182.

Take CGCCTATC: the “PBM E-score” value was -0.0721.

Regarding GCTCTTGA, the “PBM E-score” value was -0.0961.

Take CATTGGTA: the “PBM E-score” value worked out at 0.0339.

Turning to ATGTCCTC, the “PBM E-score” value worked out at 0.0753.

As to CTCACACC, the “PBM E-score” value was -0.0508.

On to AGTCATGG, for which the “PBM E-score” value was -0.079.

With ACTACCAG, the “PBM E-score” value is -0.187.

Take CGTGTGGC: the “PBM E-score” value stood at 0.0386.

For the sequence TCTATCAA, the “PBM E-score” value was 0.101.

On to CCCTGCTA, for which the “PBM E-score” value is -0.171.

GCTATGCC: the “PBM E-score” value was -0.123.

For the sequence AATAAAGT, the “PBM E-score” value was 0.0961.

Turning to AGAGAATG, the “PBM E-score” value is 0.0962.

In the case of ACTCCTCA, the “PBM E-score” value is -0.225.

On to AGGTCGTA, for which the “PBM E-score” value is 0.0952.

AGTACAGC: the “PBM E-score” value is -0.0179.

As to AAAACCGC, the “PBM E-score” value worked out at 0.033.
